This assay deals with Salmonella enterica serovar Typhimurium SL1344. In words: bacterial growth OD600 after 18 h with compound and polymyxin B; higher = more bacterial growth (less inhibition). The following applies: 50 µM, Mueller-Hinton broth.

The list shows a part of the results. These are raw signals, not scaled to a control.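 Primary screen: polymyxin B was added at a level permeabilizing Salmonella outer membranes while sparing inner membranes. DMSO wells, both with and without polymyxin B, established maximum growth. Plate-to-plate variation meant each plate was ranked on its own, and the lowest-OD600 compounds were selected as hits.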

For the compound `COc1ccc(F)c(CC2(CCC(=O)N(C)Cc3ccc4nccnc4c3)CCC(=O)N2)c1` (configuration not stated), the “bacterial growth OD600” value (polymyxin B 0.75 µg/mL) worked out at 0.908.

In the case of `Oc1ccc(CN2CC[C@@H](N3CCN(CCc4ccccc4)CC3)[C@H](O)C2)cc1Cl`, the “bacterial growth OD600” value (polymyxin B 1 µg/mL) was determined as 0.86. Consider `Cc1ccc2c(c1)CN(CCNC(=O)CCCc1cccs1)CC(C)O2` (configuration not stated), for which the “bacterial growth OD600” value (polymyxin B 0.75 µg/mL) is 0.861. Regarding `O=C(Cc1ccncc1)NCc1cccnc1Oc1ccccc1`, the “bacterial growth OD600” value (polymyxin B 1 µg/mL) is 0.913. With `CN(Cc1ccc2nccnc2c1)C(=O)CC1(c2ccccc2)CC(=O)N(CCc2ccccn2)C1=O` (configuration not stated), the “bacterial growth OD600” value (polymyxin B 0.75 µg/mL) was determined as 0.718.

With `CC(C)=CC(=O)N1CCCC(N2CCN(c3cccc(Cl)c3)CC2)C1` (configuration not stated), the “bacterial growth OD600” value (polymyxin B 1 µg/mL) came out at 0.963. The same measure, in the same setting: the same measure for `O=C(Nc1ccnn1C1CCN(Cc2cccc3nonc23)CC1)c1ccccc1`: 0.941.

On to `CCn1ccnc1CN1CCc2onc(-c3ccc4c(c3)OCO4)c2C1`, for which, for the setting “polymyxin B 0.75 µg/mL”, the “bacterial growth OD600” value was determined as 0.813. As to `Cc1nonc1CN(C)c1ccc(-c2nc(COc3ccccc3)no2)cn1`, the “bacterial growth OD600” value (polymyxin B 1 µg/mL) worked out at 0.645.

Regarding `Cc1ccc(C(=O)NCc2cccnc2N2CCOCC2)s1`, the “bacterial growth OD600” value (polymyxin B 0.75 µg/mL) came out at 0.776. For `CN(CCc1ccccn1)c1ncccc1CNC(=O)c1cc2sccc2[nH]1`, for the setting “polymyxin B 1 µg/mL”, the “bacterial growth OD600” value worked out at 0.837.

On to `C[C@@H]1CN(Cc2c(C(=O)N3CCN(C4CCCCC4)CC3)nc3ccccn23)C[C@H](C)O1`, for which the “bacterial growth OD600” value (polymyxin B 0.75 µg/mL) was 0.817.

In the case of `O=C(Cn1cc(NC(=O)CCOc2ccccc2)cn1)NCCCn1cccn1`, the “bacterial growth OD600” value (polymyxin B 0.75 µg/mL) stood at 0.99.

For the compound `CCC(=O)N[C@@H]1c2ccccc2C2(CCN(C(=O)c3cccs3)CC2)[C@H]1OCc1cccnc1`, under “polymyxin B 0.75 µg/mL”, the “bacterial growth OD600” value is 0.779. In the case of `Cc1c(CC(=O)NC2CC2)c2c(n1CCc1ccccc1)CCCC2=O`, for the setting “polymyxin B 0.75 µg/mL”, the “bacterial growth OD600” value is 0.963. Turning to `COc1ccc(-c2nn(-c3ccccc3)cc2CN2CCC(C(N)=O)CC2)c(F)c1`, the “bacterial growth OD600” value (polymyxin B 1 µg/mL) stood at 0.874.

For `Cc1nc(N2CCCCCCC2)ncc1C(C)NC(=O)C1CCOCC1` (configuration not stated), for the setting “polymyxin B 1 µg/mL”, the “bacterial growth OD600” value amounted to 1.09. Regarding `CN(Cc1nccs1)C(=O)C1CCC(=O)N(CCCc2ccccc2)C1` (configuration not stated), under “polymyxin B 1 µg/mL”, the “bacterial growth OD600” value was found to be 0.89.

`CC(C)NC(=O)c1ccc(OC2CCN(S(C)(=O)=O)CC2)c(Cl)c1`: the “bacterial growth OD600” value (polymyxin B 0.75 µg/mL) was found to be 1.01. Regarding `O=C(c1csc2nc(-c3ccccc3Cl)cn12)N1CCCC1`, where the note is “polymyxin B 0.75 µg/mL”, the “bacterial growth OD600” value amounted to 0.01. Regarding `c1ccc(-c2nc3c(c(N4CCN(C5CCCC5)CC4)n2)CCC3)cc1`, the “bacterial growth OD600” value (polymyxin B 1 µg/mL) worked out at 0.869. For `O=C(CCCn1nnnc1CN1CCOCC1)N1CCCN(C2CCCCC2)CC1`, where the note is “polymyxin B 1 µg/mL”, the “bacterial growth OD600” value came out at 1. With `Cc1cccc(C)c1Oc1ncccc1CNC(=O)CC1CN(C)CCN1C` (configuration not stated), the “bacterial growth OD600” value (polymyxin B 1 µg/mL) is 1.29. Turning to `Cc1nc(C)c(C(=O)N2CCc3[nH]nc(-c4ccccc4)c3C2)s1`, the “bacterial growth OD600” value (polymyxin B 0.75 µg/mL) turned out to be 0.878. Regarding `CCOC(=O)N1CCN(C(=O)c2ccc(N3CCC(NCc4ccc(C)c(F)c4)CC3)cc2)CC1`, the “bacterial growth OD600” value (polymyxin B 0.75 µg/mL) worked out at 0.833. Take `Cc1ccc(CN(C)C(=O)CC2(c3ccccc3)CC(=O)N(Cc3cccnc3)C2=O)cc1` (configuration not stated): the “bacterial growth OD600” value (polymyxin B 0.75 µg/mL) came to 0.362.

In the case of `Cc1ccsc1CN(C)C(=O)CC(c1ccccc1)c1ccc2c(c1)OCO2` (configuration not stated), the “bacterial growth OD600” value (polymyxin B 1 µg/mL) is 0.401.

As for `COCC1CCN(C(=O)CC(c2cccc(O)c2)c2ccccc2Cl)CC1` (configuration not stated), the “bacterial growth OD600” value (polymyxin B 1 µg/mL) was 0.561.

Consider `CN(C)S(=O)(=O)NCC1CCCN(Cc2ccc(O)c(Cl)c2)C1` (configuration not stated), for which, under “polymyxin B 0.75 µg/mL”, the “bacterial growth OD600” value amounted to 0.787.

Regarding `CCS(=O)(=O)Nc1cc(C(=O)NCCCn2cccn2)c2c(c1)nc(-c1ccccc1)n2C`, the “bacterial growth OD600” value (polymyxin B 0.75 µg/mL) was determined as 0.854. In the case of `O=C(c1ccc(N2CCCCC2)cc1)N1CCOc2ccc(CN3CCCCC3CO)cc2C1` (configuration not stated), the “bacterial growth OD600” value (polymyxin B 0.75 µg/mL) was 0.86. Take `CC(=O)N1CCCC(Nc2ccc(C)c(C)c2)C1` (configuration not stated): the “bacterial growth OD600” value (polymyxin B 1 µg/mL) worked out at 0.922.
